Data: article PMC10497824
Results are given in words; binding and its absence hold for the method and conditions named. In cells and extracts the contact can be indirect. Some results given as binding are weak or reduced against the parent protein; the word gives no strength. Where a sequence is shown, tags or fusion partners need not be part of it.

The chains behind the UniProt entries cited, without tags or fusion partners.
UniProt Q14145: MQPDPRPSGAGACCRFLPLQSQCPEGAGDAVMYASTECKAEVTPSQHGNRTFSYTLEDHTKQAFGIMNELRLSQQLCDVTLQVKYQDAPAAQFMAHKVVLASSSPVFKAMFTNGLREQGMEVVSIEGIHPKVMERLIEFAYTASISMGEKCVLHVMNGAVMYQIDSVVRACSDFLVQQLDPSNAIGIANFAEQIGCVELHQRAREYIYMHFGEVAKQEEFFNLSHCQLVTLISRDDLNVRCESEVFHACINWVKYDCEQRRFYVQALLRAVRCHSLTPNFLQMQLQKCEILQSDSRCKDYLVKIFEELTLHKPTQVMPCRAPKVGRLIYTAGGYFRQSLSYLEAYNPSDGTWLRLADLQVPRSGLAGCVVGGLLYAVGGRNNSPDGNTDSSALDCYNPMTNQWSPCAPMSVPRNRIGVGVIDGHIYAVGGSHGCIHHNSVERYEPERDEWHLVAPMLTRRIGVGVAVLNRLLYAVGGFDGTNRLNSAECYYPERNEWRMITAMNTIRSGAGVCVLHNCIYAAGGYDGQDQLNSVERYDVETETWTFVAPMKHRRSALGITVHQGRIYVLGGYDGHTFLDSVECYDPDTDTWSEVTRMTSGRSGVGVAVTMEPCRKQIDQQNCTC

Target: Kelch-like ECH-associated protein 1 (FLAG-Keap1) (UniProt Q14145)
Assay: co-IP; exogenous Flag-Keap1 with His-MCM3/HA-Nrf2 in 293T treated with or without PQQ; IP lysis buffer (20 mM Tris pH 7.8, 150 mM NaCl, 0.2% NP-40, 10% glycerol), antibodies on Protein A/G agarose, 4°C overnight; immunoblotting

binding: binds
B1: minichromosome maintenance complex component 3 (His-MCM3) (protein, UniProt P25205 1-808)
chain: MAGTVVLDDVELREAQRDYLDFLDDEEDQGIYQSKVRELISDNQYRLIVNVNDLRRKNEKRANRLLNNAFEELVAFQRALKDFVASIDATYAKQYEEFYVGLEGSFGSKHVSPRTLTSCFLSCVVCVEGIVTKCSLVRPKVVRSVHYCPATKKTIERRYSDLTTLVAFPSSSVYPTKDEENNPLETEYGLSVYKDHQTITIQEMPEKAPAGQLPRSVDVILDDDLVDKAKPGDRVQVVGTYRCLPGKKGGYTSGTFRTVLIACNVKQMSKDAQPSFSAEDIAKIKKFSKTRSKDIFDQLAKSLAPSIHGHDYVKKAILCLLLGGVERDLENGSHIRGDINILLIGDPSVAKSQLLRYVLCTAPRAIPTTGRGSSGVGLTAAVTTDQETGERRLEAGAMVLADRGVVCIDEFDKMSDMDRTAIHEVMEQGRVTIAKAGIHARLNARCSVLAAANPVYGRYDQYKTPMENIGLQDSLLSRFDLLFIMLDQMDPEQDREISDHVLRMHRYRAPGEQDGDAMPLGSAVDILATDDPNFSQEDQQDTQIYEKHDNLLHGTKKKKEKMVSAAFMKKYIHVAKIIKPVLTQESATYIAEEYSRLRSQDSMSSDTARTSPVTARTLETLIRLATAHAKARMSKTVDLQDAEEAVELVQYAYFKKVLEKEKKRKKRSEDESETEDEEEKSQEDQEQKRKRRKTRQPDAKDGDSYDPYDFSDTEEEMPQVHTPKTADSQETKESQKVELSESRLKAFKVALLDVFREAHAQSIGMNRLTESINRDSEEPFSSVEIQAALSKMQDDNQVMVSEGIIFLI
